Data source: PubChem BioAssay AID720505 (Drosophila RNAi Screening Center, 2013)
Aim: 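Fly regulators or components of the CRAC channel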 (primary screen). System: Drosophila S2R+ cells. Reagents: long dsRNA against Drosophila genes. Challenge: thapsigargin (2 µM) in calcium-free buffer to empty internal stores, then 2 mM calcium added back. Detection: 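Fluo-4 signal in 384-well plates read on a FLIPR after thapsigargin (2 µM, calcium-free) store depletion and 2 mM calcium add-back; unnormalised mean endpoint per well; screen run twice, selected wells retested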. Scale: calcium signal and retest calcium signal: higher = more calcium entry after store depletion. Hit rule: 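Knock-downs counted as hits when calcium entry dropped relative to STIM1 positive and Rho1 negative controls present on each plate; roughly 1500 genes called, with reductions of differing size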. Calls: active = called as lowering calcium entry; inactive = not called.
The deposit covers about 20,000 reagents; shown is a random part of those that have a named target and a result. Over the whole deposit, about 2,100 (10%) got an active call. 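Raw plate signals without normalisation; calls rest on control-based scores that were not deposited; replicate 2 separates called from uncalled poorly.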 Reagent sequences are not shown. Not stated in the record: the amount of reagent, the time to read-out.

The first 7 records as a preview:
| target gene | amplicon | calcium signal, replicate 1 | calcium signal, replicate 2 | retest calcium signal, replicate 1 | retest calcium signal, replicate 2 | outcome |
| --- | --- | --- | --- | --- | --- | --- |
| CG13458 | DRSC10005 | 106 | 86.5 | – | – | inactive |
| btz | DRSC14566 | 128 | 158 | – | – | inactive |
| CG5539 | DRSC04510 | 173 | 246 | – | – | inactive |
| CG12869 | DRSC06208 | 97 | 125 | – | – | inactive |
| vers | DRSC10715 | 92.9 | 101 | – | – | inactive |
| vers | DRSC23232 | 105 | 186 | – | – | inactive |
| ohgt | DRSC15521 | 97.1 | 78.2 | – | – | inactive |

Results, repeating the preview:
| target gene | amplicon | calcium signal, replicate 1 | calcium signal, replicate 2 | retest calcium signal, replicate 1 | retest calcium signal, replicate 2 | outcome |
| --- | --- | --- | --- | --- | --- | --- |
| CG13458 | DRSC10005 | 106 | 86.5 | – | – | inactive |
| btz | DRSC14566 | 128 | 158 | – | – | inactive |
| CG5539 | DRSC04510 | 173 | 246 | – | – | inactive |
| CG12869 | DRSC06208 | 97 | 125 | – | – | inactive |
| vers | DRSC10715 | 92.9 | 101 | – | – | inactive |
| vers | DRSC23232 | 105 | 186 | – | – | inactive |
| ohgt | DRSC15521 | 97.1 | 78.2 | – | – | inactive |
| tgy | DRSC20045 | 141 | 139 | – | – | inactive |
| CG34408 | DRSC17733 | 164 | 121 | – | – | inactive |
| CG34408 | DRSC21926 | 115 | 300 | – | – | inactive |
| CG34408 | DRSC23056 | 119 | 140 | – | – | inactive |
| gt | DRSC18782 | 100 | 113 | – | – | inactive |
| gt | DRSC23119 | 111 | 141 | – | – | inactive |
| enc | DRSC08716 | 107 | 88.9 | – | – | inactive |
| Polr3C | DRSC14490 | 115 | 114 | – | – | inactive |
| CG1113 | DRSC12163 | 101 | 79.2 | – | – | inactive |
| CG10185 | DRSC14205 | 140 | 136 | – | – | inactive |
| CG8353 | DRSC03084 | 184 | 154 | – | – | inactive |
| Vha44 | DRSC07572 | 127 | 100 | – | – | inactive |
| Vha44 | DRSC07573 | 138 | 119 | – | – | inactive |
| CG6788 | DRSC20007 | 101 | 110 | – | – | inactive |
| CG6654 | DRSC16084 | 141 | 95.2 | – | – | inactive |
| msi | DRSC17003 | 73.9 | 94.3 | – | – | active |
| CatB | DRSC03194 | 68.5 | 77.6 | – | – | active |
| nolo | DRSC03705 | 152 | 123 | – | – | inactive |
| nolo | DRSC03719 | 72.2 | 80.9 | – | – | active |
| nolo | DRSC03720 | 74.4 | 101 | – | – | active |
| GluRIID | DRSC16723 | 228 | 198 | – | – | inactive |
| lcs | DRSC20580 | 79.3 | 101 | – | – | inactive |
| Cp7Fc | DRSC18035 | 238 | 95.3 | – | – | inactive |
| Gr59f | DRSC04499 | 191 | 203 | – | – | inactive |
| CG2076 | DRSC19832 | 135 | 92.8 | – | – | inactive |
| CG8560 | DRSC10994 | 110 | 123 | – | – | inactive |
| Bka | DRSC02757 | 159 | 165 | – | – | inactive |
| Aptx | DRSC15768 | 230 | 190 | – | – | inactive |
| nopo | DRSC06918 | 159 | 92.4 | – | – | inactive |
| CG17107 | DRSC02575 | 224 | 131 | 97.8 | 119 | inactive |
| CG17107 | DRSC22627 | 113 | 210 | – | – | inactive |
| CG11854 | DRSC14409 | 171 | 155 | – | – | inactive |
| Wdr82 | DRSC02595 | 111 | 290 | 90.4 | 121 | inactive |
| Wdr82 | DRSC21723 | 157 | 107 | – | – | inactive |
| CG5111 | DRSC15717 | 125 | 81.3 | – | – | inactive |
| CG32091 | DRSC10141 | 57.1 | 82.6 | – | – | inactive |
| CG32091 | DRSC10820 | 59.6 | 81.9 | – | – | inactive |
| Ilp3 | DRSC10168 | 95.6 | 111 | – | – | inactive |
| CG14589 | DRSC04866 | 113 | 177 | – | – | inactive |
| CG42449 | DRSC18084 | 133 | 78.8 | 5124 | 134 | inactive |
| cuff | DRSC06315 | 76.2 | 151 | – | – | inactive |
| ppk12 | DRSC04086 | 84 | 116 | – | – | inactive |
| Cpr64Ac | DRSC08462 | 121 | 140 | – | – | inactive |
| Drice | DRSC16715 | 120 | 119 | – | – | inactive |
| l(3)04053 | DRSC11640 | 128 | 109 | 135 | 120 | inactive |
| OSCP1 | DRSC06304 | 83.8 | 105 | – | – | inactive |
| Ccdc58 | DRSC10218 | 99.4 | 77.2 | – | – | inactive |
| CG42360 | DRSC04224 | 135 | 174 | – | – | inactive |
| mtsh | DRSC03070 | 148 | 152 | – | – | inactive |
